The record followed here is PMC7801388.

Chains of the proteins cited; added tags and fusions are not shown. Lines headed by an entry give the natural chain unless they say otherwise; changes in a name come on top.
UniProt Q9UJU2: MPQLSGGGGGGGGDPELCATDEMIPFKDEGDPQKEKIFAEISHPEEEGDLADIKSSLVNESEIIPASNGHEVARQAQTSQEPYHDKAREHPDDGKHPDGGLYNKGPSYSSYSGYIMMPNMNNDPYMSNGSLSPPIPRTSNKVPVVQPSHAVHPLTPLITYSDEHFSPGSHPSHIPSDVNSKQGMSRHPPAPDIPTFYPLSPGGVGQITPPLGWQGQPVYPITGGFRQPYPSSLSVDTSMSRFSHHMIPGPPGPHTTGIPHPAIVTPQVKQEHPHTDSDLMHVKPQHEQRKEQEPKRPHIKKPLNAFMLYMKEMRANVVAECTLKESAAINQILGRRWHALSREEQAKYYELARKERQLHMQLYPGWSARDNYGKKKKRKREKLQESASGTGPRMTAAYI
UniProt Q9UNE7: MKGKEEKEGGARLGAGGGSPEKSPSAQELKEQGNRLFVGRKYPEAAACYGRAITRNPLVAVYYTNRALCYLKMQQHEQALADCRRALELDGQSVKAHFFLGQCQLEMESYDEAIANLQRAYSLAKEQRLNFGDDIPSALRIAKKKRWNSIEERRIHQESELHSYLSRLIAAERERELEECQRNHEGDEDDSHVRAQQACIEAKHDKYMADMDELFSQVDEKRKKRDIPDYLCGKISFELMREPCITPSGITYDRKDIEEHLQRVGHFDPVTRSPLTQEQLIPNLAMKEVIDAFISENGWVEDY
UniProt P35222: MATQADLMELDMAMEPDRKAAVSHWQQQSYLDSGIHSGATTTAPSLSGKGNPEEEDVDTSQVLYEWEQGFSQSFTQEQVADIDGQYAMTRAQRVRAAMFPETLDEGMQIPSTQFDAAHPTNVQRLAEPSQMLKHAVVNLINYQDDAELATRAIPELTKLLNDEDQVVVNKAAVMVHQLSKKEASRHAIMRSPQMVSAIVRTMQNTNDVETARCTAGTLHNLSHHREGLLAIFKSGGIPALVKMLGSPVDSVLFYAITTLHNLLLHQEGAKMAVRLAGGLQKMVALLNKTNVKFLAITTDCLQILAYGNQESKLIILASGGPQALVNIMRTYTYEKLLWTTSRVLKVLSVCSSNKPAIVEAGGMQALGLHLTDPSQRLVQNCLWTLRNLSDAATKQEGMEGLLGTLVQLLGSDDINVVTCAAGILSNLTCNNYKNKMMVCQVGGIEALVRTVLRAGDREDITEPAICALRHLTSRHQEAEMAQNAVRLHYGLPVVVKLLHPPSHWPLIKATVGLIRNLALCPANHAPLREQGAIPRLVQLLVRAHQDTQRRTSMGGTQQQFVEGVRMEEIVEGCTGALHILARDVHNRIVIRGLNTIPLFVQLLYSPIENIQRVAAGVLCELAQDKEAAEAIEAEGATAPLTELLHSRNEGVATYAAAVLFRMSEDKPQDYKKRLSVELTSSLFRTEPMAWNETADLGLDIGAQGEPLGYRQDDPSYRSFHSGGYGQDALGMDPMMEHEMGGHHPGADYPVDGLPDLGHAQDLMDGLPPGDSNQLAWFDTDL

These are yes or no findings as the source states them, for the method shown. In cells and extracts the contact can be indirect. For some of these results: A result given as binding can be weak or reduced; the word gives no strength. For some of these results: Tags and fused reporters may be left off the sequences shown.

Common to all, as to experiment: co-IP; HEK293T cells co-transfected with Flag- and HA-tagged plasmids; whole-cell lysates in low-salt lysis buffer (50 mM Hepes pH 7.5, 150 mM NaCl, 1% Triton X-100) incubated with anti-Flag agarose overnight at 4 °C, blotted with anti-HA; in Fig. 5 also with Myc-CHIP or Myc-CHIP T246M, CHIP siRNA, Wnt3a (40 ng/ml, 1 h)
Test [1] has as its target Flag-LEF1 (lymphoid enhancer factor) (human (A549 cDNA)) (UniProt Q9UJU2).
In test [2] the target is Flag-CHIP (human (A549 cDNA)) (UniProt Q9UNE7).
The target in test [3] is Flag-β-catenin (human (A549 cDNA)) (UniProt P35222).
Test [4] addresses Flag-CHIP deletion mutant without the TPR domain (human (A549 cDNA)).

For “HA-CHIP (carboxyl terminus of Hsc70-interacting protein) (from UniProt Q9UNE7 1-303) (enzyme)”, in test [1], the binding entry is recorded as “binds”.
HA-LEF1 (from UniProt Q9UJU2-6): the binding entry in test [2] and in test [3] was “binds” each time.

B1: HA-Arc (protein, UniProt Q7LC44 1-396)
chain: MELDHRTSGGLHAYPGPRGGQVAKPNVILQIGKCRAEMLEHVRRTHRHLLAEVSKQVERELKGLHRSVGKLESNLDGYVPTSDSQRWKKSIKACLCRCQETIANLERWVKREMHVWREVFYRLERWADRLESTGGKYPVGSESARHTVSVGVGGPESYCHEADGYDYTVSPYAITPPPAAGELPGQEPAEAQQYQPWVPGEDGQPSPGVDTQIFEDPREFLSHLEEYLRQVGGSEEYWLSQIQNHMNGPAKKWWEFKQGSVKNWVEFKKEFLQYSEGTLSREAIQRELDLPQKQGEPLDQFLWRKRDLYQTLYVDADEEEIIQYVVGTLQPKLKRFLRHPLPKTLEQLIQRGMEVQDDLEQAAEPAGPHLPVEDEAETLTPAPNSESVASDRTQPE
With B1, in test [4], the binding entry was “no binding”.
